This note sets out measurements from PubChem BioAssay AID1487 (National Center for Advancing Translational Sciences (NCATS), 2009).

The assay is described as follows: qHTS Assay for Modulators of Lamin A Splicing. As to conditions: HeLa LMNA splicing GFP/RFP minigene ratio, 48 h. A digest of the protocol:
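S3 HeLa stable clones carrying a lamin A-EGFP splicing minigene plus DsRed2 were seeded at 600 cells/well in Opti-MEM with 2% FBS, pin-dosed and incubated 48 h at 37°C. Acumen cytometry (488 nm) gave the GFP/RFP total-intensity ratio.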
Background: Quantitative high-throughput screening tests each substance at several concentrations.

[1] abbreviates: measured here: RFP viability control channel.
Where [2] appears, read: measured here: GFP splicing reporter channel.

Some of the results follow. These are further read-outs of the screen, such as a control signal, another cell line or another target. No call is given for them. Compounds called inactive in the main read-out are mostly missing here. The note in brackets gives the kind of curve behind each potency; many fits are weak.

Usually AC50 stands for the concentration giving half of the maximal activity seen.

For `CCOC(=O)C1=C(O)CSC1=Nc1ccc(C)cc1`, the AC50 under setting [1] was 0.00708 µM [falling, full curve, poor fit]. For the compound `COc1c(Cl)cc(Cl)cc1/C=C(\C#N)c1nc2ccccc2[nH]1`, under setting [2], the AC50 is 2.51 µM [rising, full curve, poor fit].

Regarding `Fc1ccc(-n2cc(CNCCc3ccncc3)c(-c3ccccc3Cl)n2)cc1`, the concentration at half-maximal activity (AC50) under setting [2] is 6.31 µM [falling, full curve, poor fit]. In the case of `COc1ccccc1N(C(=O)CN1C(=O)c2ccccc2S1(=O)=O)C(C(=O)NCC1CCCO1)c1ccc(F)cc1` (centres undefined), the AC50 under setting [2] was 31.6 µM [rising, single point] and the AC50 under setting [1] was 31.6 µM [rising, single point].

For the compound `c1ccc(Nc2ncnc3ccc(-c4cccnc4)cc23)cc1`, the concentration at half-maximal activity (AC50) is 20 µM [falling, single point] under setting [2] and 12.6 µM [falling, single point] under setting [1].

`CCOC(=O)C(=Cc1ccc(OCc2ccc([N+](=O)[O-])cc2)c(OC)c1)C(=O)OCC`: the AC50 was 4.47 µM [falling, full curve] under setting [2] and 7.08 µM [falling, partial curve] under setting [1]. For `O=S(=O)(/C(=C/c1ccc(C(F)(F)F)cc1)c1nc2ccccc2[nH]1)c1ccccc1`, the AC50 is, setting by setting: under setting [2], 31.6 µM [falling, single point]; under setting [1], 5.62 µM [falling, single point]. Take `Cc1nc(-c2ccc(Cl)cc2)sc1CCNC(=O)c1ccco1`: under setting [1], the AC50 was 15.8 µM [falling, partial curve, poor fit].

Consider `Cc1ccc2nc(SCC(=O)c3ccc(O)cc3O)[nH]c2c1`, for which the AC50 under setting [2] was 0.0126 µM [rising, full curve, poor fit]. Same read-out and setting: under `CN(C)c1ccc(-c2n[nH]c(=S)n2-c2ccccc2)cc1` stands 35.5 µM [rising, single point]. In the case of `Cc1ccccc1C(=O)N1CCN(c2ccc(NC(=O)c3ccc4c(c3)OCO4)cc2)CC1`, the AC50 is, setting by setting: under setting [2], 0.2 µM [rising, partial curve]; under setting [1], 0.447 µM [rising, full curve]. As to `CCCCOc1ccc(C(=O)NCC2(N3CCN(C)CC3)CCCCC2)cc1`, under setting [2], the concentration at half-maximal activity (AC50) is 5.01 µM [rising, single point].

In the case of `O=C(N/N=C/c1ccccn1)c1ccccc1`, the AC50 under setting [1] was 17.8 µM [rising, partial curve, poor fit]. In the case of `CCOC(=O)C1CCN(c2nc(-c3ccc(Br)cc3)nc3ccccc23)CC1`, the AC50 under setting [2] was 0.447 µM [falling, full curve, poor fit].

Turning to `COc1ccc(OC)c(NC(=O)c2cn3c4c(ccc(Cl)c4c2=O)OC(C)C3)c1` (centres undefined), the half-maximal activity concentration (AC50) under setting [1] was 0.0708 µM [falling, partial curve]. In the case of `CSCC(=O)N1CCCC(C(=O)c2cc(F)ccc2F)C1` (centres undefined), the AC50 under setting [2] was 0.0224 µM [rising, full curve, poor fit].

For `Cc1cc(C)c(C(=O)/C=C/c2ccc(C(C)C)cc2)c(=O)[nH]1`, the AC50 under setting [2] is 10 µM [falling, partial curve] and the AC50 under setting [1] was 12.6 µM [falling, partial curve]. With `N#C/C(C(=O)NCc1ccccc1)=C1\SC(CCO)C(=O)N1c1ccccc1` (centres undefined), the AC50 by setting is: under setting [2], 5.62 µM [rising, partial curve]; under setting [1], 0.398 µM [rising, full curve, poor fit].

Regarding `COc1ccccc1N1CCN(Cc2cc(=O)n3ccsc3n2)CC1`, the AC50 under setting [2] is 20 µM [falling, single point] and the AC50 under setting [1] was 35.5 µM [falling, single point]. Take `CCOC(=O)C1CCN(C(=O)c2ccc3c(c2)sc2nc(-c4ccccc4)cn23)CC1`: the AC50 under setting [2] is 4.47 µM [falling, full curve, poor fit]. With `C=CCSc1nnc(CNC(=O)c2ccc(Cl)cc2)n1CC`, the AC50 under setting [1] is 35.5 µM [rising, partial curve, poor fit]. Still for that read-out and setting: under `CCCCNC(=O)c1ccc(N2CCC3(CC2)OCCO3)c([N+](=O)[O-])c1` stands 0.0794 µM [rising, full curve, poor fit].

Regarding `O=C(NCCCn1ccnc1)/C(=C\c1cccnc1)NC(=O)c1ccccc1F`, the AC50 under setting [2] is 0.0316 µM [rising, full curve, poor fit]. As for `CCn1c(SCC(=O)NCc2ccc3c(c2)OCO3)nnc1-c1ccncc1`, the AC50 under setting [1] was 5.62 µM [rising, single point]. In the case of `O=C(CCCCCNC(=O)c1ccccc1Cl)N/N=C/c1ccco1`, the AC50 is 0.158 µM [rising, full curve, poor fit] under setting [2] and 0.158 µM [rising, full curve, poor fit] under setting [1]. Regarding `C(=N\c1nc2ccccc2n1Cc1ccccc1)/c1cccs1`, the AC50 under setting [1] was 25.1 µM [rising, single point]. As to `O=C(Cn1nnc(-c2cccc(C(F)(F)F)c2)n1)N1CCOCC1`, the AC50 under setting [1] was 35.5 µM [rising, single point]. With `Cn1nc(C(=O)N2CCN(c3cccc(Cl)c3)CC2)c2c1-c1ccccc1S(=O)(=O)C2`, under setting [2], the AC50 is 4.47 µM [rising, partial curve]. As to `Cc1cc(C(=O)NNc2ccc(Cl)cc2)no1`, the concentration at half-maximal activity (AC50) reads like this: under setting [2], 0.0891 µM [rising, full curve]; under setting [1], 0.0562 µM [rising, partial curve, poor fit].

`O=C(NCCc1ccccc1)C1CCN(c2nc3ccccc3o2)CC1`: the AC50 under setting [2] was 20 µM [rising, single point] and the AC50 under setting [1] was 35.5 µM [rising, single point]. With `Cc1nc2ccc(Cl)cc2c(-c2ccccc2F)c1CC(=O)O`, the AC50 under setting [1] is 20 µM [rising, single point]. On to `Cc1c(Cl)cccc1NC(=O)c1nc(C)n(-c2cc(OC(C)C)c(Cl)cc2Cl)n1`, for which the AC50 reads like this: under setting [2], 14.1 µM [rising, single point]; under setting [1], 35.5 µM [rising, single point]. For `O=C(c1ccc(Oc2ccc(C(F)(F)F)cc2[N+](=O)[O-])cc1)N1CCOCC1`, the AC50 runs as follows: under setting [2], 20 µM [rising, single point]; under setting [1], 22.4 µM [rising, single point]. For the compound `CCCCC#Cc1ccccc1CC(=O)Nc1ccccc1`, under setting [1], the AC50 was 35.5 µM [rising, single point].

`CN1CC2(Cc3c1ccc1ccccc31)C(=O)OC(C)(C)OC2=O`: the AC50 runs as follows: under setting [2], 35.5 µM [rising, single point]; under setting [1], 31.6 µM [rising, single point].
